Earlier results, collected in patent US20240100025A1, “Materials and Methods for Treating Viral and Other Medical Conditions” (Biotronik AG, priority 2020, published 2024).
At least one structure is not confirmed: it was looked up by name or label, or the drawing left a doubt.

Columns and labels:
H1N1 = conditions: cited from earlier work
hepatitis C (HCV) = conditions: renal transplant patients; cited from earlier work
H1N1 influenza = conditions: mouse H1N1 model; cited from earlier work

For `CO[C@H]1C[C@@H]2CC[C@@H](C)[C@@](O)(O2)C(=O)C(=O)N2CCCC[C@H]2C(=O)O[C@H]([C@H](C)C[C@@H]2CC[C@@H](O)[C@H](OC)C2)CC(=O)[C@H](C)/C=C(\C)[C@@H](O)[C@@H](OC)C(=O)[C@H](C)C[C@H](C)/C=C/C=C/C=C/1C` [sirolimus, Rapamycin], the clearance of virus (H1N1; after 7 days of treatment) is given as “rapid clearance of virus”, the blood oxygen levels (H1N1; days 3 and 7, versus corticosteroids without sirolimus) is given as “statistically superior” and the “mean duration of ventilator time” value (H1N1; sirolimus 2 mg/d for 14 days with adjuvant corticosteroids) is given as 7 days. For the same compound, the organ failure score (H1N1; versus corticosteroids without sirolimus) was “significantly improved”, the “hepatitis C viral replication” value (hepatitis C (HCV)) was “able to suppress hepatitis C (HCV) viral replication” and the “viral titer and expression of pro inflammatory cytokines and chemokines” value (H1N1 influenza) was “reduced viral titer and the expression of pro inflammatory cytokines and chemokines”.
